PubChem BioAssay AID1508597 | Cure First | 2020

Screen: 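Survival screen with siRNA in ovarian cancer cells derived from patients, with or without rucaparib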 (primary screen)
Cell system: human ovarian carcinoma lines grown from tumours: OCI-P5x (papillary serous) and OCI-C5x (clear cell)
Reagent: siRNA pool against human genes, 1.25 pmol siRNA per well
Time to read-out: 72 h or 96 h, depending on the cell culture
Challenge: rucaparib 20 µM (about IC30) or vehicle, present until read-out
Rucaparib or vehicle: Vehicle
Cell line: OCI-C5x (clear cell)
Measured: 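ATP luminescence measured at 72 or 96 h according to the culture, then normalised and expressed as percent viability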
Scale: viability, normalised: higher = more viable cells remaining
Active means: 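a well counts as a hit if its normalised viability is under 80 percent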
Meaning of the calls: active = viability under 80%; inactive = viability 80% or more
Shown is an unselected part of the about 2,100 reagents, under one of the conditions tested. 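Calls flag viability under 80% in either arm, not effects specific to rucaparib; the reference for percent is not stated.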 The record does not give: the 100% reference.

The opening 2 records, ahead of the listing:
gene symbol	PubChem SID	technical replicate	viability, normalised (%)	Outcome
BRAF (B-Raf proto-oncogene, serine/threonine kinase)	SID405527748	1	50.8	active
BRAF (B-Raf proto-oncogene, serine/threonine kinase)	SID405527748	2	53.5	active

Main list, repeating the preview:
gene symbol	PubChem SID	technical replicate	viability, normalised (%)	Outcome
BRAF (B-Raf proto-oncogene, serine/threonine kinase)	SID405527748	1	50.8	active
BRAF (B-Raf proto-oncogene, serine/threonine kinase)	SID405527748	2	53.5	active
BRAF (B-Raf proto-oncogene, serine/threonine kinase)	SID405527748	3	67.3	active
HDAC7 (histone deacetylase 7)	SID405526845	1	41.2	active
HDAC7 (histone deacetylase 7)	SID405526845	2	47.4	active
HDAC7 (histone deacetylase 7)	SID405526845	3	55	active
NRK (Nik related kinase)	SID405527649	1	70.1	active
NRK (Nik related kinase)	SID405527649	2	75.1	active
NRK (Nik related kinase)	SID405527649	3	61.2	active
NRXN2 (neurexin 2)	SID405527093	1	53.8	active
NRXN2 (neurexin 2)	SID405527093	2	34.4	active
NRXN2 (neurexin 2)	SID405527093	3	40.7	active
CLDN19 (claudin 19)	SID405528132	1	26.3	active
CLDN19 (claudin 19)	SID405528132	2	21.4	active
CLDN19 (claudin 19)	SID405528132	3	28	active
MAP2K1 (mitogen-activated protein kinase kinase 1)	SID405527721	1	47.9	active
MAP2K1 (mitogen-activated protein kinase kinase 1)	SID405527721	2	60.7	active
MAP2K1 (mitogen-activated protein kinase kinase 1)	SID405527721	3	37.5	active
NQO2 (N-ribosyldihydronicotinamide:quinone dehydrogenase 2)	SID405526376	1	69.5	active
NQO2 (N-ribosyldihydronicotinamide:quinone dehydrogenase 2)	SID405526376	2	67.4	active
NQO2 (N-ribosyldihydronicotinamide:quinone dehydrogenase 2)	SID405526376	3	55.6	active
ZFP82 (ZFP82 zinc finger protein)	SID405526457	1	62.5	active
ZFP82 (ZFP82 zinc finger protein)	SID405526457	2	73.1	active
ZFP82 (ZFP82 zinc finger protein)	SID405526457	3	49.5	active
